The source of these data is publication doi:10.1101/402990 (bioRxiv, 2018).

Protein sequences, listed by entry. Tags and fused reporters are not part of them.
UniProt P50527: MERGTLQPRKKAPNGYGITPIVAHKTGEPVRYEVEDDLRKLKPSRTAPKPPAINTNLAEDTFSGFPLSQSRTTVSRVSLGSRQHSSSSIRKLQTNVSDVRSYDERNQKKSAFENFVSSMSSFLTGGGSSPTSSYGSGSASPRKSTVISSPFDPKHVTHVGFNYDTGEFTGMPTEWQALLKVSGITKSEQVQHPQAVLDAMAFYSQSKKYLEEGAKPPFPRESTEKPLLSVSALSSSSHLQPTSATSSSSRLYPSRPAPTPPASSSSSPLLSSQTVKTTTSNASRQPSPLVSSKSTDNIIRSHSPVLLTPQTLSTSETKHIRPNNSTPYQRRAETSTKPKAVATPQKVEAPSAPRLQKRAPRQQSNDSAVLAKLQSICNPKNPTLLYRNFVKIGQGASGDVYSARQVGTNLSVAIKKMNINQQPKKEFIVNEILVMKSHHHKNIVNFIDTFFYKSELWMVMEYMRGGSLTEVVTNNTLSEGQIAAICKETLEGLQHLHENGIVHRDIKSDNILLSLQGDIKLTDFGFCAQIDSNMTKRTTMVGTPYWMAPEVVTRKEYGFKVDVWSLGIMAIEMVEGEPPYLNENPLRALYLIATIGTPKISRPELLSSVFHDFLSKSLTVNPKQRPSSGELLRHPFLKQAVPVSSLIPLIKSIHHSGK

One test deals with GFP-Shk1 (S. pombe) (UniProt P50527). The experiment in a line: co-IP.
Test [1] deals with Tea3 (Tea3-GFP co-expressed with the untagged WT allele of Tea3) (S. pombe) (UniProt O14248). The experiment in a line: co-IP.

Results are given in words; binding and its absence hold for the method and conditions named. Binding seen in cells or lysates may run through a third protein. Some binding calls cover weakened binding; strength is not graded here. Where a sequence is shown, tags or fusion partners need not be part of it.

B1: Tea3 (endogenous, untagged) (protein, UniProt O14248 1-1125)
chain: MVQKVLSRQSDNSQDVSAEQLDVVESGSIDQQNIRAWVVRKVKENDKRTSTNQSFKWEAVKPASCLDAANEKFMYLHGGREKSGISNSLFKLDLDSCTVYSHNRGEDNDSPARVGHSIVCSADTIYLFGGCDSETDSTFEVGDNSLYAYNFKSNQWNLVSTQSPLPSPRTGHSMLLVDSKLWIFGGECQGKYLNDIHLFDTKGVDRRTQSELKQKANANNVEKANMEFDETDWSWETPFLHSSSPPPRSNHSVTLVQGKIFVHGGHNDTGPLSDLWLFDLETLSWTEVRSIGRFPGPREGHQATTIDDTVYIYGGRDNKGLILNELWAFNYSQQRWSLVSNPIPILLSDSSSYKIVSKNNHILLLYLNALDAPKQLLCYEADPKNLYWDKDKFSDIPVLQHISMKPSNASNHTVSLGYLNDRPNHSKKNSVTSTSSSQFNNFLEQNQKAVRSARHRHYASLDEQGLHSLRNLSKTSGMNHSADFSLHEFGQADPFAYEIEKPIASLPLPNGNDTISRSSESSSPINESESNSLLKLQSDFKFSNSDDRVAWLEEQLLYCMQQGYTLKPPNLFQHVDEKLRLEKKEQLSYLEILKVIEQMLESNEQKFKKQIVSLASENAKLAAQRDAAVENANYSRSLIQKKTTDETVGSLIEKVGKLEYEVQGTLEEATSYYQKNTELQQLLKQNESASELLKSRNEKLCVDYDKLRSVFEEDSSKILSLQKENENLQSQILQISEELVDYRSRCEALEYGNYELETKLIEMHDRVEMQTNVIEASASALDVSNTAILSFEDSLRRERDEKSTLQQKCLNLQYEYENVRIELENLQSRALELESALEQSVSDAKYSKAIMQSGLSKLLSSINENKDNLKEFSKSKQKISYLESQLEGLHELLRESQRLCEGRTKELLNSQQKLYDLKHSYSSVMTEKSKLSDQVNDLTEQAKITQRKLSEVQIALADSKMNQQLSGKDSTDVHLPTDFSASSSPLRSYFNEEDSFNNASAAHSSKESDIPSGGVFTKYRNHFGNLMTSEETKAPDNNDLHKRLSDVINSQQKFLSLSPQVSKDYYDVRSKLNDTAGSFSGEEMRAIDDNYYASRIKQLEDDYQKAITYANCSDESFQQLSHSFM
For B1, the binding entry in the test with GFP-Shk1 (S. pombe) was “binds”.

B2: Tea3 (Tea3-GFP co-expressed with the untagged WT allele of Tea3) (protein, UniProt O14248 1-1125)
chain: MVQKVLSRQSDNSQDVSAEQLDVVESGSIDQQNIRAWVVRKVKENDKRTSTNQSFKWEAVKPASCLDAANEKFMYLHGGREKSGISNSLFKLDLDSCTVYSHNRGEDNDSPARVGHSIVCSADTIYLFGGCDSETDSTFEVGDNSLYAYNFKSNQWNLVSTQSPLPSPRTGHSMLLVDSKLWIFGGECQGKYLNDIHLFDTKGVDRRTQSELKQKANANNVEKANMEFDETDWSWETPFLHSSSPPPRSNHSVTLVQGKIFVHGGHNDTGPLSDLWLFDLETLSWTEVRSIGRFPGPREGHQATTIDDTVYIYGGRDNKGLILNELWAFNYSQQRWSLVSNPIPILLSDSSSYKIVSKNNHILLLYLNALDAPKQLLCYEADPKNLYWDKDKFSDIPVLQHISMKPSNASNHTVSLGYLNDRPNHSKKNSVTSTSSSQFNNFLEQNQKAVRSARHRHYASLDEQGLHSLRNLSKTSGMNHSADFSLHEFGQADPFAYEIEKPIASLPLPNGNDTISRSSESSSPINESESNSLLKLQSDFKFSNSDDRVAWLEEQLLYCMQQGYTLKPPNLFQHVDEKLRLEKKEQLSYLEILKVIEQMLESNEQKFKKQIVSLASENAKLAAQRDAAVENANYSRSLIQKKTTDETVGSLIEKVGKLEYEVQGTLEEATSYYQKNTELQQLLKQNESASELLKSRNEKLCVDYDKLRSVFEEDSSKILSLQKENENLQSQILQISEELVDYRSRCEALEYGNYELETKLIEMHDRVEMQTNVIEASASALDVSNTAILSFEDSLRRERDEKSTLQQKCLNLQYEYENVRIELENLQSRALELESALEQSVSDAKYSKAIMQSGLSKLLSSINENKDNLKEFSKSKQKISYLESQLEGLHELLRESQRLCEGRTKELLNSQQKLYDLKHSYSSVMTEKSKLSDQVNDLTEQAKITQRKLSEVQIALADSKMNQQLSGKDSTDVHLPTDFSASSSPLRSYFNEEDSFNNASAAHSSKESDIPSGGVFTKYRNHFGNLMTSEETKAPDNNDLHKRLSDVINSQQKFLSLSPQVSKDYYDVRSKLNDTAGSFSGEEMRAIDDNYYASRIKQLEDDYQKAITYANCSDESFQQLSHSFM
For B2, the binding entry in test [1] was “binds”.
